Measured values published in the supplement of paper PMC10849652.
Some of the results follow.

Chains of the proteins cited; added tags and fusions are not shown. Lines headed by an entry give the natural chain unless they say otherwise; changes in a name come on top.
UniProt Q13185: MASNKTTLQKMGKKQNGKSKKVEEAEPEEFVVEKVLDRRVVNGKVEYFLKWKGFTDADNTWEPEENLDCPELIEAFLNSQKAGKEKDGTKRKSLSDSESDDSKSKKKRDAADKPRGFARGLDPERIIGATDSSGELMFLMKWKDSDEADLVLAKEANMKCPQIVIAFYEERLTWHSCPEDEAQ
UniProt P78371: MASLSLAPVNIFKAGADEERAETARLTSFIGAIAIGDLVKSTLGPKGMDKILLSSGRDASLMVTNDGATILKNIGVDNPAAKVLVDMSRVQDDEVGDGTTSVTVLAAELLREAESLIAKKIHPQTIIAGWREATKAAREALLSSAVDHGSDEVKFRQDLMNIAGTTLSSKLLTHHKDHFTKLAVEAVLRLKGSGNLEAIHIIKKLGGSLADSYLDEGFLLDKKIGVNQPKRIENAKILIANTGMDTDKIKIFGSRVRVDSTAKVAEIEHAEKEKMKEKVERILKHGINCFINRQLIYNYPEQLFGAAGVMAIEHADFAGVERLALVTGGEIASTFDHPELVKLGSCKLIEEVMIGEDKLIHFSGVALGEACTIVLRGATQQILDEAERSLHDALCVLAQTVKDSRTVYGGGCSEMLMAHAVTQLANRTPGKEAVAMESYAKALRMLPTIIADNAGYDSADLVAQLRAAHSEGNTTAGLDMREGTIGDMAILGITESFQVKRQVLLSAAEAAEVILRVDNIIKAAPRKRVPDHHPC
UniProt P42574: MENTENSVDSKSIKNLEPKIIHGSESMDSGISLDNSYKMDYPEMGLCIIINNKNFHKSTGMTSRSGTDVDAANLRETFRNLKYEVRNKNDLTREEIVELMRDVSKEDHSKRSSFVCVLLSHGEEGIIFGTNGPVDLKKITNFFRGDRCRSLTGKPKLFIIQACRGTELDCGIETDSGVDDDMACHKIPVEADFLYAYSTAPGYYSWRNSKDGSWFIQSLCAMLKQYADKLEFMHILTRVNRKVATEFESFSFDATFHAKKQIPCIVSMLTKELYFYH
UniProt P14635, whole entry, looked up: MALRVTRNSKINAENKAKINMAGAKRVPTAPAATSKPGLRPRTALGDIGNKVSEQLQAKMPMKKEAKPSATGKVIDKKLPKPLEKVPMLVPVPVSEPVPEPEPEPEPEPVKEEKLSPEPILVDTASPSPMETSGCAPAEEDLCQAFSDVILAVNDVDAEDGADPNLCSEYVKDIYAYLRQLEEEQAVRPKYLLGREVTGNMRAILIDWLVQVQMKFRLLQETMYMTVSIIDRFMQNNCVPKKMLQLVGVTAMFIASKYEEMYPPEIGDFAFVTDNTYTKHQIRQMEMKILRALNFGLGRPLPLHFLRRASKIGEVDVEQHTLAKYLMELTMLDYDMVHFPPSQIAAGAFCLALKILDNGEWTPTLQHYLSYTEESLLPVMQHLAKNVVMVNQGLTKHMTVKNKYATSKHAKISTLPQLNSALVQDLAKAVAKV
UniProt P40227, whole entry, looked up: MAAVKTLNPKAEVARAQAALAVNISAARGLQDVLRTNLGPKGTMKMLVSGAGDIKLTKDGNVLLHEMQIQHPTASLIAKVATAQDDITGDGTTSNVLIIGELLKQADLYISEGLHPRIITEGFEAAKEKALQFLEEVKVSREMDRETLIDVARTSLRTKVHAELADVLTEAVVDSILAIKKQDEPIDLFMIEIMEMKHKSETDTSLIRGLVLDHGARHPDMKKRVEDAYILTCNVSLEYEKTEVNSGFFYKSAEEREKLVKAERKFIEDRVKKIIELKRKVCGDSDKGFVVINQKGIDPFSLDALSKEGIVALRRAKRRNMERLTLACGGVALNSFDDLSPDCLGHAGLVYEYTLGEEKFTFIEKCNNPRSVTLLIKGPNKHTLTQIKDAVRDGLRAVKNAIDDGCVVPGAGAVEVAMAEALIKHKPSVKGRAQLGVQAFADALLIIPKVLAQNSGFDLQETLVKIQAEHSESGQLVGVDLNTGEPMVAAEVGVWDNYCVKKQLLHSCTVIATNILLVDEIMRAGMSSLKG
UniProt P55211: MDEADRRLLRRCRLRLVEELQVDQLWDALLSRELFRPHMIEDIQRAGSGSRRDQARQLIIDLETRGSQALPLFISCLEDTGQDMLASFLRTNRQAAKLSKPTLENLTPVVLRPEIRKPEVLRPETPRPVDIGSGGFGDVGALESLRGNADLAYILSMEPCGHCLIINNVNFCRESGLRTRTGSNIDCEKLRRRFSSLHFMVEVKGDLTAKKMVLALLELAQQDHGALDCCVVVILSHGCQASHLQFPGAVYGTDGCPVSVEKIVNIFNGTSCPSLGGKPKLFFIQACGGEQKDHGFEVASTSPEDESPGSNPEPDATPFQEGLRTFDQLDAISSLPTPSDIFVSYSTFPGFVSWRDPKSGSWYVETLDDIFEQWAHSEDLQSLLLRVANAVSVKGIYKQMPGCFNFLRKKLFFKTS
UniProt Q4VC31: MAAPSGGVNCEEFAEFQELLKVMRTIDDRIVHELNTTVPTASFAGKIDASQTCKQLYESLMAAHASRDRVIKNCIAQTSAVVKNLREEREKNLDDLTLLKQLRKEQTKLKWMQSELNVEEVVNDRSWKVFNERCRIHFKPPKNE
UniProt Q8WUD4: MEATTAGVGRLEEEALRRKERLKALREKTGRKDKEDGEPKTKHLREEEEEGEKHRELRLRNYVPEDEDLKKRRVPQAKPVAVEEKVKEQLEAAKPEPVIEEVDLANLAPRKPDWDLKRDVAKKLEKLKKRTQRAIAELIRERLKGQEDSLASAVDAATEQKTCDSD
UniProt Q567U6, whole entry, looked up: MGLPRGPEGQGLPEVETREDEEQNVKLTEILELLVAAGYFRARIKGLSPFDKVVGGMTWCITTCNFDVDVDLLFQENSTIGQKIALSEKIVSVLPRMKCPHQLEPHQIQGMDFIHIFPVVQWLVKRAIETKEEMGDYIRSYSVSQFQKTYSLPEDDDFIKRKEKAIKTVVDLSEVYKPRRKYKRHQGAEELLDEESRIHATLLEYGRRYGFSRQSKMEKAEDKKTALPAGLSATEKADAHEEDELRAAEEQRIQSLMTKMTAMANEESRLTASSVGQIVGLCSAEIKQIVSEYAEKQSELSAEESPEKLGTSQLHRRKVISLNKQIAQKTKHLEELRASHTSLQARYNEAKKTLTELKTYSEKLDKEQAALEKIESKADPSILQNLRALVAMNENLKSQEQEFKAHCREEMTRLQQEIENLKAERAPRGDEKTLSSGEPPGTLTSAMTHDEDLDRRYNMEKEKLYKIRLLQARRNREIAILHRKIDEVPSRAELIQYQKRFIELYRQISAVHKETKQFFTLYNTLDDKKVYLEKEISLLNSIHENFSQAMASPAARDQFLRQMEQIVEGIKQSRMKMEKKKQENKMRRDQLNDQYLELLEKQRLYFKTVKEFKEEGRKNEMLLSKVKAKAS
UniProt Q86WR0: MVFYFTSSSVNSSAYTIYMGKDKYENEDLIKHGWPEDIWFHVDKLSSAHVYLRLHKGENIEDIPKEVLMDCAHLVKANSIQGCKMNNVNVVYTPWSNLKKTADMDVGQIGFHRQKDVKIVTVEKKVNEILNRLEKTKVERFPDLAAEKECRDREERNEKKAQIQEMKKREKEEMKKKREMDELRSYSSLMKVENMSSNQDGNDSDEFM
UniProt Q3V6T2: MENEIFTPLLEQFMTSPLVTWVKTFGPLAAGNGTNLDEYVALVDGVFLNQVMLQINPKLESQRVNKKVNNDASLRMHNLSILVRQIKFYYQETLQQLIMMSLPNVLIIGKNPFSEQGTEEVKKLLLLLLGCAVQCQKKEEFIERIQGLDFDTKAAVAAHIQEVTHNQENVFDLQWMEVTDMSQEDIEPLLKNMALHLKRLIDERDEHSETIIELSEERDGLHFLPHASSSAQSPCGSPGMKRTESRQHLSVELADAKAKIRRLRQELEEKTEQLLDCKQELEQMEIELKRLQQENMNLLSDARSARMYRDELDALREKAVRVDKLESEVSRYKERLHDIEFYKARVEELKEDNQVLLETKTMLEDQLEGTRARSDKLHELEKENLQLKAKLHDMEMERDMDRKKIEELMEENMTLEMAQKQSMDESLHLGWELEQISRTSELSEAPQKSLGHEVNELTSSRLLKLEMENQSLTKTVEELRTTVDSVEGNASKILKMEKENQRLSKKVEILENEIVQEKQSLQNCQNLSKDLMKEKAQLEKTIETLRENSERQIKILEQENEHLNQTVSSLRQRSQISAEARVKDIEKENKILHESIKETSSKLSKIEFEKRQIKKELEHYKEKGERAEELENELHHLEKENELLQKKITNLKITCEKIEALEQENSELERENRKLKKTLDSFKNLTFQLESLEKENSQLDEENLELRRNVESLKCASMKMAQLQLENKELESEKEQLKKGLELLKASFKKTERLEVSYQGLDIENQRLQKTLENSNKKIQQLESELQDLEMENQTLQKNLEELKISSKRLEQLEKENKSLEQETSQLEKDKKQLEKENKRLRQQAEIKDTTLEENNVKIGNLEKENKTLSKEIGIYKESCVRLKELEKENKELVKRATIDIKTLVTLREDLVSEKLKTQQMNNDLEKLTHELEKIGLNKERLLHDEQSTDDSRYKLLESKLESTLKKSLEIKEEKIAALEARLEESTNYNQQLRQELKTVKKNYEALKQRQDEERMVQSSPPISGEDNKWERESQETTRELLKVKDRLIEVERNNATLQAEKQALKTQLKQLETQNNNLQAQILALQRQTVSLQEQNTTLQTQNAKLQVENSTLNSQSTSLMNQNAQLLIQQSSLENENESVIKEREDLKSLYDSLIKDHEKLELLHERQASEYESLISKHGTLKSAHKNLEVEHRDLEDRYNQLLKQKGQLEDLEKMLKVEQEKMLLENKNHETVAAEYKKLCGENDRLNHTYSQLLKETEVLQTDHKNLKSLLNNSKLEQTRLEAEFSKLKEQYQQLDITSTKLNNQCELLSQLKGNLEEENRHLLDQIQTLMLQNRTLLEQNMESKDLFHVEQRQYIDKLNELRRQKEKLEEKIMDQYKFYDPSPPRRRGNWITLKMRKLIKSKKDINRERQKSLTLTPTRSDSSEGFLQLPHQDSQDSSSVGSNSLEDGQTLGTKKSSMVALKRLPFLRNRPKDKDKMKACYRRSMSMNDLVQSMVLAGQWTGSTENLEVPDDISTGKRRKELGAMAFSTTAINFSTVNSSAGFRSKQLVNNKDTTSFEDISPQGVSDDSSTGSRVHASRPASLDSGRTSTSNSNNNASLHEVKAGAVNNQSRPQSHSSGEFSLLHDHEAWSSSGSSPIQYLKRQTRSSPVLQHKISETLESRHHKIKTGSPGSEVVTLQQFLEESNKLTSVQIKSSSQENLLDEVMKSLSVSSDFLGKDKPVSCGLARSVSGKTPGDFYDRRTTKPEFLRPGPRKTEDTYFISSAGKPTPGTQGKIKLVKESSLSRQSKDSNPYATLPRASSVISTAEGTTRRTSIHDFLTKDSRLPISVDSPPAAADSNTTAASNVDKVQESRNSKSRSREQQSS
UniProt Q96F63: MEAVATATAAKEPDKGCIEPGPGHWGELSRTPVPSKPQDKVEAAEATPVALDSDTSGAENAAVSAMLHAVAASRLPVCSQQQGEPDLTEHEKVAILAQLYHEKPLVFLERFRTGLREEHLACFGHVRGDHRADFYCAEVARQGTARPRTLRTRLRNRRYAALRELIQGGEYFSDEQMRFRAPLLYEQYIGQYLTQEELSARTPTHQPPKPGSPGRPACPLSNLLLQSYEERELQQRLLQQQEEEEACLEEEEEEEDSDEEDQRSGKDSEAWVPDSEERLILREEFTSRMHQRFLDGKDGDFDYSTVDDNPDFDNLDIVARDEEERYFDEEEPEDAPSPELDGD
UniProt Q8N7R7: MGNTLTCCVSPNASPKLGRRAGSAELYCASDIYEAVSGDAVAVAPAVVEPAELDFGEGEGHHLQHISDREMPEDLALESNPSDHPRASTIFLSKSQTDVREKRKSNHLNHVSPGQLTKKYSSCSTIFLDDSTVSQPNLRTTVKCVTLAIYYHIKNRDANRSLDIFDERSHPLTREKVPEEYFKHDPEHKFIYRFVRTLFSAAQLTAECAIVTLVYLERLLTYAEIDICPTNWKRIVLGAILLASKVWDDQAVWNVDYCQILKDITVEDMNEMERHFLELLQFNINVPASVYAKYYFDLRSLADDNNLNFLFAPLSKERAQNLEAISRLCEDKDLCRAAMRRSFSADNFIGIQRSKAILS
UniProt Q6NZI2: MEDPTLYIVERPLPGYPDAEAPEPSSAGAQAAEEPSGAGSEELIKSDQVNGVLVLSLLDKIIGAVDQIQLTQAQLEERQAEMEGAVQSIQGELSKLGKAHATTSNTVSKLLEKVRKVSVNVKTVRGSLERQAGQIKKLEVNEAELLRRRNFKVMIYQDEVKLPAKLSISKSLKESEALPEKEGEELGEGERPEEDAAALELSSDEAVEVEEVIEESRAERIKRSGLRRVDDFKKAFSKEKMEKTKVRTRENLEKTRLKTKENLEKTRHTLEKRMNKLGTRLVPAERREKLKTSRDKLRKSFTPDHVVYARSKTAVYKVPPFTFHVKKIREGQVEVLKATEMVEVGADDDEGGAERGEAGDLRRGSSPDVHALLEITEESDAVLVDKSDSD

Compound: O=C1NC(=O)C(c2cnc3ccccn23)=C1c1cn2c3c(cc(F)cc13)CN(C(=O)N1CCCCC1)CC2
Test: log2 fold change, soluble protein after heating vs DMSO (PISA); higher = thermal stabilisation; K562 lysate, 10 uM; active = over 0.2 and 3.5 SD of the protein, either way, in both replicates (recomputed)
Procedure, shortened: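 A 30 min treatment with 10 μM compound was applied to crude K562 extract at 1 mg/mL protein in PBS pH 7.4 with 1 mM MgCl2. Heating for 3 min spanned 48°C-58°C, after which aliquots were pooled, adjusted to 0.5% NP-40 at 4°C and spun at 21,000xg for 90 min. TMTpro 16plex LC-MS/MS of the supernatant, with channel sums equalised, gave values recorded as log-two fold change in thermal stability against solvent controls, from duplicates.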

log2 fold change, inactive:
CD46 isoform 2 (UniProt P15529) 0.038
CCNB2 (UniProt O95067) -0.08
CBX3 (UniProt Q13185) 0.057
CCT2 (UniProt P78371) 0.013
CASP3 (UniProt P42574) 0.007
CCNB1 (UniProt P14635) -0.02
CAT (UniProt P04040) 0.027
CCT6A (UniProt P40227) 0.012
CASP9 (UniProt P55211) 0.019
CCDC58 (UniProt Q4VC31) 0.029
CD47 (UniProt Q08722) -0.037
CCNK isoform 4 (UniProt O75909) -0.051
CCDC12 (UniProt Q8WUD4) -0.086
CCDC93 (UniProt Q567U6) -0.015
CBX4 (UniProt O00257) 0.046
CCDC25 (UniProt Q86WR0) -0.011
CCDC88A (UniProt Q3V6T2) -0.031
CCDC88C (UniProt Q9P219) -0.041
CCDC22 (UniProt O60826) 0.014
CCDC97 (UniProt Q96F63) 0.022
CCNYL1 (UniProt Q8N7R7) 0.019
CBLB (UniProt Q13191) 0.032
CAVIN1 (UniProt Q6NZI2) 0.004

Quoted from above (2 entries):
log2 fold change, inactive:
CCDC93 (UniProt Q567U6) -0.015
CBX4 (UniProt O00257) 0.046
